In PubChem BioAssay AID493014 (National Center for Advancing Translational Sciences (NCATS), 2011) one finds AC50 data, which are given here for 40 compounds.

The other results are listed elsewhere or left out. These are further read-outs of the screen, such as a control signal, another cell line or another target. No call is given for them. Most of these compounds were active or inconclusive in the main read-out, so they are no random draw. Words in brackets tell the shape of the fitted curve; partial curves, single points and poor fits give uncertain potencies.

The assay can be described thus: qHTS Assay to Find Inhibitors of Chronic Active B-Cell Receptor Signaling. Conditions: ABC-DLBCL IkBa-CBG/CBR reporter, luminescence ratio (green luciferase fused to IkBa over red control in TMD8 lymphoma cells), 4 h. In outline:
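Compounds up to 46 uM were incubated four hours with TMD8 cells whose green CBG68 luciferase is fused to IkappaBalpha; red CBR luminescence normalised the signal, and concentration-effect curves were fitted to fusion, red and ratio data.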

Setting [1] is: measured here: CBR red luminescence, cell number.
Where [2] appears, read: measured here: IkBa-CBG green luminescence.

As to `CSCCC(NC(=O)c1occc1C)C(=O)O` (stereo not drawn), the AC50 – broadly, the midpoint of the concentration-response curve, whichever way the signal moves – under setting [1] is 3.26 µM [rising, partial curve, poor fit]. For the compound `CCN(CC)c1ncnc2c1cnn2-c1cc(Cl)ccc1C`, the AC50 under setting [1] was 0.794 µM [rising, full curve, poor fit]. Same read-out and setting: for `Cc1c(C(=O)N/N=C/c2ccc(O)c(Br)c2)sc(N)c1C#N` the value was 23.1 µM [falling, partial curve, poor fit]. The same measure, in the same setting: the figure for `COc1ccc(-c2csc(Nc3ncccc3C)n2)cc1OC` is 1.3 µM [rising, full curve, poor fit].

Turning to `CCc1ccc(N(C(=O)Cn2nnc(-c3ccccc3)n2)C(C(=O)NC2CCCCC2)c2ccccn2)cc1` (stereo not drawn), the AC50 under setting [1] is 32.6 µM [rising, single point]. For the compound `C=CCN(CC=C)C(=O)Nc1ccc2nc(C)sc2c1`, under setting [1], the AC50 was 0.164 µM [rising, full curve, poor fit]. Same read-out and setting: for `O=C1c2ccccc2C(=O)C1c1ccc(Br)cc1` the value was 11.2 µM [falling, single point]. Same read-out and setting: for `CCCCCCCC(=O)NNC(=O)CCC(=O)O` the value was 15.8 µM [rising, partial curve, poor fit]; for `CC1=NOC(=O)/C1=C/c1ccc(-c2ccc(Cl)cc2)o1`, 6.51 µM [rising, partial curve, poor fit]; for `Cc1cccc2sc(NC(=O)C3CCN(C(=O)c4ccco4)CC3)nc12`, 0.891 µM [falling, full curve]. Same read-out and setting: for `CN(C)c1ccc(CN(C)C2CCCCC2)cc1` the value was 3.26 µM [rising, partial curve, poor fit]. For the compound `CC(C)CCCC(C)NS(=O)(=O)Cc1ccccc1` (stereo not drawn), the AC50 under setting [1] is 0.92 µM [rising, full curve, poor fit]. Still for that read-out and setting: the figure for `Clc1ccc(-c2nc3ccccn3c2CN2CCCCC2)cc1` is 25.1 µM [rising, single point]; for `Cc1ccc(N2CCN(CCc3nc4cc(NS(C)(=O)=O)ccc4n3C)CC2)cc1` it is 0.00411 µM [falling, full curve, poor fit]; for `COc1ccc(CCNC(=O)CCSc2nc(-c3ccco3)cc(C(F)(F)F)n2)cc1OC` it is 14.6 µM [falling, partial curve, poor fit]. The same measure, in the same setting: the figure for `N#Cc1ccccc1N=Cc1ccc(Br)cc1` is 2.31 µM [rising, full curve, poor fit]; for `CCOC(=O)CSc1ncc(-c2ccc([N+](=O)[O-])cc2)[nH]1` it is 10.3 µM [rising, partial curve, poor fit]. As to `CC(=O)c1c(C)[nH]c(C(=O)Nc2ccc3c(c2)OCCO3)c1C`, under setting [1], the AC50 was 7.08 µM [falling, partial curve, poor fit].

In the case of `CC(C)n1nc(C(=O)Nc2nc3ccccc3[nH]2)c2ccccc2c1=O`, the AC50 under setting [1] was 10 µM [falling, partial curve]. The same measure, in the same setting: for `CCN(Cc1cc2ccccc2[nH]c1=O)S(=O)(=O)c1ccccc1` the value was 1.3 µM [falling, partial curve]; for `COc1ccc(C(C)(C)C)cc1S(=O)(=O)N1CCC(C(N)=O)CC1`, 8.2 µM [rising, partial curve, poor fit].

In the case of `CCOC(=O)c1nnc(-c2ccc(C)cc2)nc1Sc1ccccc1Cl`, the AC50 under setting [1] is 29.1 µM [rising, single point]. The same measure, in the same setting: the figure for `O=C1c2ccccc2NC(c2cccs2)N1O` (stereo not drawn) is 18.4 µM [falling, partial curve, poor fit]. On the same count and under the same terms, for `N#C/C(=C(/O)CSc1ncn[nH]1)c1nc2ccccc2[nH]1` the value was 7.94 µM [falling, partial curve]. The same measure, in the same setting: the figure for `C=CCNc1nc2c(c(=O)n(C)c(=O)n2C)n1Cc1ccc(F)cc1` is 13 µM [falling, partial curve, poor fit]; for `O=C(CN1C(=O)NC(c2ccccc2)(c2ccccc2)C1=O)Nc1ccc(N2CCOCC2)cc1` it is 29.1 µM [rising, single point]; for `COc1ccccc1CNC(=O)C1CCCN(S(=O)(=O)c2cccc3nonc23)C1` (stereo not drawn) it is 31.6 µM [falling, single point]. Regarding `CCOc1cc(/C=N/N=C(/N)c2nonc2N)cc(Br)c1OCc1ccc(Cl)cc1`, the AC50 under setting [1] is 13 µM [rising, partial curve].

With `C=CCNc1nc(C)c(CNc2c(C)cc(C)cc2C)nc1C#N`, under setting [1], the AC50 was 35.5 µM [rising, single point]. Consider `COc1ccc(-c2c(-c3ccc(OCC(=O)NN)cc3O)n[nH]c2C)cc1OC`, for which the AC50 under setting [1] was 11.2 µM [falling, partial curve] and the AC50 under setting [2] is 11.2 µM [rising, partial curve, poor fit]. As for `CCN(CC)C(=O)c1ccc(Nc2nnc(-c3ccc(O)cc3)c3ccccc23)cc1`, the AC50 under setting [1] was 7.08 µM [falling, full curve, poor fit]. With `O=C1c2ccc(-c3ccc(F)cc3OCc3ccccc3)cc2S(=O)(=O)c2cccc(C(=O)N3CCCC3)c21`, the AC50 under setting [1] was 1.3 µM [rising, full curve]. As to `N/C(=N\OC(=O)COc1ccc2ccccc2c1)c1ccccn1`, the AC50 under setting [1] is 35.5 µM [falling, single point]. On to `Cc1ccccc1Nc1cc(C(=O)NCc2ccco2)c2ccccc2n1`, for which the AC50 under setting [1] is 4.61 µM [falling, partial curve, poor fit] and the AC50 under setting [2] is 2.31 µM [rising, full curve, poor fit]. With `CCOc1ccc(-n2cc(-c3ccccc3)c3c(NCCc4ccccc4)ncnc32)cc1`, under setting [1], the concentration at half-maximal activity (AC50) was 12.6 µM [rising, partial curve]. On the same count and under the same terms, the figure for `COc1ccc(C(=O)O)cc1S(=O)(=O)Nc1ccccc1Cc1ccccc1` is 5.62 µM [rising, full curve]. On the same count and under the same terms, for `C=CCn1c(SCC(=O)Nc2ccc(-c3nc4ccc(C)cc4s3)cc2)nnc1-c1ccccc1` the value was 5.17 µM [rising, partial curve].

Regarding `O=C(CCc1ccccc1)Nc1ccc(Cl)cn1`, the AC50 is, setting by setting: under setting [1], 8.91 µM [falling, partial curve]; under setting [2], 35.5 µM [falling, single point]. With `CC(=O)c1ccc(NC(=S)Nc2cccc3cnccc23)cc1`, the AC50 under setting [1] was 15.8 µM [falling, single point].

On to `COc1cccc(NC2=C(Cl)C(=O)OC2OC(=O)c2ccco2)c1` (stereo not drawn), for which the AC50 under setting [1] was 3.55 µM [falling, partial curve].
